Values joined by “and” are separate entries in the source; they are usually repeats but may differ in a detail not shown here. Identical values can stand only once. Hit rate of the full screen: of about 350,000 compounds, about 1,200 (0.34%) were called active. Inconclusive means that the source gave no clear call. Such entries were picked first, then a sample of the others. Calls come from the whole dose curve; as a rule, active = well fitted inhibition curve with a large enough effect; inconclusive = small, poorly fitted or top-dose-only effect; inactive = no such curve, though single readings can be large or run the other way. Potencies beside an inconclusive call are fits to weak or partial responses and may not hold up.
target: DNA repair nuclease/redox regulator APEX1 (Homo sapiens) (UniProt P27695); assay: qHTS Assay for Inhibitors of the Human Apurinic/apyrimidinic Endonuclease 1 (APE1); conditions: recombinant APE1, TAMRA/BHQ-2 abasic DNA cleavage fluorescence; activity change, negative = inhibition: at 65.8 µM (top of the series); note: nearly all actives have a fitted effect of over 55% in size;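 for activity change, negative = inhibition: plate controls were vehicle for no effect and reference inhibitor for full effect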
Procedure, shortened: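 Readout is kinetic fluorescence (ex 525, em 598 nm) from cleavage of 50 nM TAMRA/BHQ-2 THF abasic duplex by 0.75 nM APE1, compound added 15 min beforehand at RT.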
Potency is the fitted concentration of half-maximal effect.

Protein sequences, listed by entry. Tags and fused reporters are not part of them.
UniProt P27695, whole entry, looked up: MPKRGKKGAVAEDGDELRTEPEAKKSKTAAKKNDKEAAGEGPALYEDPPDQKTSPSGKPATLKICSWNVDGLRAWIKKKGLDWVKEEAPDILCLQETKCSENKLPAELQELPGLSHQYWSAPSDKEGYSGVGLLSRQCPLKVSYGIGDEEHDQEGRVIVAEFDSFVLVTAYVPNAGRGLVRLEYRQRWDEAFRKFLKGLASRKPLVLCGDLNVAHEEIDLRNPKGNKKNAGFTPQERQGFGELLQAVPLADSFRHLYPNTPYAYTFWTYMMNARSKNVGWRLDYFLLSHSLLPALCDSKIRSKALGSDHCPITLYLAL

SMILES | activity change, negative = inhibition | Potency
COCCN(Cc1cc2cc(C)ccc2n2nnnc12)C(=S)Nc1cccc(C)c1 | inactive: 2.28% | 
Cc1ccc(OCc2ccc(C(=O)Nc3c(C)nn(Cc4c(F)c(F)c(F)c(F)c4F)c3C)o2)c([N+](=O)[O-])c1 |  | inconclusive: 39.8 µM [inhibitor, partial curve, poor fit]
COc1cc(C(=O)Nc2ccc3c(c2)C(=O)N(CCC(=O)O)C3=O)cc(OC)c1OC | inactive: -8.02% | 
C[C@]1(C(=O)NCCCNc2ncc(C(F)(F)F)cc2Cl)C=C[C@@H](Cc2ccccc2)N1C(=O)c1ccccc1 |  | inconclusive: 44.7 µM [inhibitor, single point] and inconclusive: 3.55 µM [inhibitor, partial curve]
COc1cc(NC(=O)NS(=O)(=O)c2ccc(C)cc2)cc(OC)c1 |  | inconclusive: 3.55 µM [inhibitor, single point]
CC(C)CC1=NN2C(=N)/C(=C\c3coc4ccccc4c3=O)C(=O)N=C2S1 | inactive: 20.7% | 
C=C(C)C(=O)Nc1cccc(C2=NOC3(C2)C[C@@H](C(N)=O)N(C(=O)c2ccc(Cl)cc2)C3)c1 (stereo partly drawn) |  | inconclusive: 31.6 µM [inhibitor, single point]
COc1cnc(-c2ccccn2)nc1Oc1cccc(C(F)(F)F)c1 | inactive: -9.35% | 
COc1ccc(N(C)C2=NS(=O)(=O)c3ccccc32)cc1 |  | inconclusive: 3.16 µM [inhibitor, single point]
Cc1ccccc1Nc1n[nH]c(C)c1[N+](=O)[O-] |  | inconclusive: 0.199 µM [inhibitor, full curve, poor fit]
O=C(CCN1C(=O)/C(=C\c2cccs2)SC1=S)Nc1ccccn1 | inactive: -4.69% | 
CCOc1ccc(CNc2nc3ccccc3n2CCN2CCOCC2)cc1 |  | inconclusive: 44.7 µM [inhibitor, single point]
Cc1ccc(-n2ncc3c(N4CCN(c5ccccc5)CC4)ncnc32)c(C)c1 |  | inconclusive: 0.708 µM [inhibitor, full curve]
Cc1ccc2[nH]c(=S)cc(C)c2c1 | inactive: -3.92% | 
O=C(OCC(=O)N1CCCCCC1)c1ccc(Cl)c(S(=O)(=O)N2CCCC2)c1 |  | inconclusive: 22.4 µM [inhibitor, partial curve]
CCC(=O)Nc1nc(N)n(-c2ccccc2)n1 | inactive: -0.678% | 
CSc1nc2ccccc2cc1/C=C(\C#N)c1ccc(Cl)cc1Cl |  | inconclusive: 1 µM [inhibitor, full curve, poor fit]
COc1ccc(C)cc1S(=O)(=O)Nc1ccncc1 | inactive: 24% | 
CC1(C)CC2=C(CO1)C(=S)NC(c1ccccc1)N2CC1CCCO1 (stereo not drawn) |  | inconclusive: 0.0251 µM [inhibitor, full curve, poor fit]
Cc1cc(S(=O)(=O)Nc2noc3ccccc23)ccc1F |  | inconclusive: 23.8 µM [inhibitor, single point]
O=C(CN1CCOCC1)Nc1ncc(Cc2ccccc2Cl)s1 |  | inconclusive: 0.891 µM [inhibitor, full curve, poor fit]
O=C(CCN1C(=O)/C(=C\c2ccccc2)SC1=S)Nc1ccc(C(=O)O)cc1 | inactive: 40% | 

SMILES | activity change, negative = inhibition | Potency
C=C1C(=O)C=C2CN(C(=O)c3ccccc3)[C@@](Cc3ccc(F)cc3)(C(=O)OC)[C@@H]12 | inactive: 14.4% | 
Cc1ccc(-n2cc(-c3ccc([N+](=O)[O-])cc3)[nH]c2=S)c(C)c1 |  | inconclusive: 44.7 µM [inhibitor, single point]
CN1\C(=C/C=C/C=C/C=[N+](C)C)C(C)(C)c2ccccc21 |  | inconclusive: 25.1 µM [inhibitor, partial curve]
NC(=O)CSc1nc2ccccc2c(=O)n1-c1ccccc1 | inactive: -4.62% | 
CCOc1ccc(-n2c(CCc3ccccc3)n[nH]c2=S)cc1 |  | inconclusive: 22.4 µM [inhibitor, partial curve, poor fit]
Cc1cc(-c2ccccc2)c2nncn2n1 |  | inconclusive: 1 µM [inhibitor, full curve, poor fit]
Cc1cc(C)c2c(N)c3ccccc3nc2n1 |  | inconclusive: 44.7 µM [inhibitor, single point]
COc1ccc2cc1Oc1ccc(cc1)CC1c3cc(c(OC)cc3CCN1C)Oc1c(OC)c(OC)c(OC)c3c1C(C2)N(C)CC3 (stereo not drawn) |  | inconclusive: 31.6 µM [inhibitor, single point]
CCN(CC)c1ccc(/C=C/C(=O)C2C(=O)C=C(C)OC2=O)cc1 (stereo not drawn) |  | inconclusive: 20 µM [inhibitor, partial curve]
CC(C)CC(NC(=O)NC(CCC(=O)O)C(=O)O)C(=O)O (stereo not drawn) |  | inconclusive: 25.1 µM [inhibitor, single point]
CCC(C)(C)NC(=O)C(c1cccc(OC)c1OC)N(CCC(C)C)C(=O)CCC(=O)Nc1cc(C)on1 (stereo not drawn) |  | inconclusive: 5.62 µM [inhibitor, full curve]
C#CCNC(=O)/C=C/c1ccc(OC)cc1 |  | inconclusive: 3.16 µM [inhibitor, single point]
O=C(NCC1OCCc2ccccc21)c1cc(COc2c(F)cccc2F)on1 (stereo not drawn) |  | inconclusive: 0.0112 µM [inhibitor, full curve, poor fit]
CCOC(=O)C1=C(CSc2nc(-c3ccccc3)ccc2C#N)OC(N)=C(C#N)C1c1ccccc1 (stereo not drawn) | inactive: -1.72% | 
Cc1ccc(-n2c(-c3ccc(Cl)cc3Cl)n[nH]c2=S)cc1 | inactive: -4.1% | 
Cc1cc(=O)[nH]c2c(N=Nc3ccc(O)cc3)c(N)nn12 |  | inconclusive: 8.91 µM [inhibitor, single point]
Cc1cccc(S(=O)(=O)c2c(N)n(Cc3ccco3)c3nc4ccccc4nc23)c1 | inactive: -5.12% | 
O=C(NC1CCCCCC1)c1cc(S(=O)(=O)N2CCOCC2)ccc1N1CCCCC1 |  | inconclusive: 28.2 µM [inhibitor, partial curve]
CC1(C)CCc2cc(-c3ccn(S(=O)(=O)c4ccccc4Cl)n3)ccc2O1 |  | inconclusive: 2.82 µM [inhibitor, single point]
COc1ccc(-c2nc(C#N)c(N3CCCCCC3)o2)cc1OC |  | inconclusive: 44.7 µM [inhibitor, single point]
O=C(NCC(c1ccc(F)cc1)N1CCOCC1)c1ccc(Br)o1 (stereo not drawn) |  | inconclusive: 22.4 µM [inhibitor, single point]

From PubChem BioAssay AID2517 (National Center for Advancing Translational Sciences (NCATS), 2010)
